For at least one compound, name, drawing or mass did not settle the structure.
Key:
Type in all cases: cell-based, human
[1] = system: KMS11, ARK and ARP1 cells; assay: Erastin growth inhibition, PrestoBlue assay; details: 10 μM Erastin, 48 hours (FIG. 23)
Experimental: FIG. 23. Erastin Inhibits MM Cells Growth. KMS11, ARK and ARP1 cells were treated with 10 μM Erastin with or without ferrostatin (Fer-1) at 1 μM for 48 hours. Cell proliferation was measured by PrestoBlue assay and normalized to control cells to calculated growth inhibition.

[2] = system: AIF1; assay: Western blot of AIF1 cleavage in OCI-MY5 cells; details: DFO 200 μM 3 hrs, then PAA 2 mM (FIG. 4D)
Experimental: (§1) FIGS. 4A-4E. […] (FIG. 4A) Top bar graph represents OCI-MY5 shRNA-Scramble and shRNA-AIF1 cells incubated with doxycycline to knockdown AIF1 for 2 days. Bottom bar graph represents OCI-MY5 EV and OCI-MY5 OE-AIF1 cells. […] Knockdown and overexpression of AIF1 was confirmed by western blots. […] AIF1, β-actin and γ-H2AX levels were analyzed by western blots. […] AIF1 and β-actin levels were analyzed by western blots. […] N, M, C respectively represent nucleus, mitochondria and cytoplasm. Blue arrows indicate the nuclear membrane and red arrowheads indicate AIF1 gold beads in cytoplasm or mitochondria. Black arrowheads indicate AIF1 gold beads in nuclei.
Cells were harvested and lysed with lysis buffer: 150 mM NaCl, 10 mM EDTA, 10 mM Tris, pH 7.4, 1% X-100 Triton. Cell lysates were subjected to SDS-PAGE, transferred onto a pure nitrocellulose membrane (BioRad), and blocked with 5% fat-free milk. […] Membranes were incubated with horseradish peroxidase (HRP)-conjugated anti-mouse secondary antibody (1:10,000, Santa Cruz Biotechnology, cat #: sc-2005) or anti-rabbit secondary antibody (1:10,000, AnaSpec Inc., cat #: AS-28177) for 1 h and chemi-luminescence signals were detected by HRP substrate (EMD Millipore).

[3] = system: ARP1 MM cells; assay: ARP1 cell viability, DFO pre-treatment followed by PAA; details: DFO 200 μM, 3 hrs
[4] = system: OCI-MY5 cells; assay: OCI-MY5 cell viability after 1 hr PAA treatment
Experimental: FIGS. 2A-2D. […] OCI-MY5 EV (FIG. 2C) and OCI-MY5 OE-Fpn1 (FIG. 2D) were incubated with or without iron (Fe-NTA (FE), 100 μM).
as §1
FIGS. 9A-9B. […] (FIG. 9B) Total RNA was extracted from OCI-MY5 EV and OE cells and Fpn1 mRNA was analyzed by Real time RT-PCR.
Human myeloma cell lines (ARP1, OCI-MY5 and their derivative cell lines) were cultured in RPMI 1640 (Invitrogen, Carlsbad, Calif.), supplemented with 10% heat-inactivated FBS (Invitrogen), penicillin (100 IU/mL), and streptomycin (100 μg/mL) in a humidified incubator at 37° C. and 5% CO2/95% air. To increase cellular iron concentration, ferric nitrilotriacatate (Fe-NTA) was used.

SMILES: CCOc1ccccc1-n1c(C(C)N2CCN(C(=O)COc3ccc(Cl)cc3)CC2)nc2ccccc2c1=O (centres unmarked) [erastin]
- cellular growth [1]: inhibits cellular growth

SMILES: CC(=O)N(O)CCCCCNC(=O)CCC(=O)N(O)CCCCCNC(=O)CCC(=O)N(O)CCCCCN [DFO, deferoxamine]
- AIF1 cleavage after PAA in cells pretreated with DFO [2]: not cleaved
- viability after PAA, DFO pre-treated versus not pre-treated cells [3]: higher viability
- effect of DFO on PAA-reduced viability in cells pre-treated with iron ([4]; EV and OE-Fpn1 OCI-MY5 cells, DFO 200 μM 3 hrs): abolished the ability of PAA to reduce cells viability
- effect of pre-treatment on PAA-induced cell death ([4]; OCI-MY5, catalase 100 U/ml, NAC 15 mM, DFO 200 μM or BCS 10 μM for 3 hrs before PAA, viability 24 hrs later): sufficient to prevent PAA-induced cellular death
